# PubChem BioAssay AID686943 – Drosophila RNAi Screening Center | 2013
# Assay: 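Fly genes whose loss alters ERK activation after insulin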 (primary screen)
# Cells: Drosophila S2R+ haemocyte-like cells expressing YFP-tagged ERK (Rolled)
# Reagent: long dsRNA against Drosophila genes
# Challenge: insulin stimulation versus unstimulated cells; dose and duration not given
# Measured: 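Per-plate z-scores of phospho-ERK immunostaining normalised to YFP-tagged ERK, measured with and without insulin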
# Scale: replicate 1, z-score of dpERK with insulin and replicate 2, z-score of dpERK with insulin: higher = more active ERK per ERK-YFP after insulin; replicate 1, z-score of dpERK under basal conditions: higher = more basal active ERK per ERK-YFP; replicate 1, z-score of ERK-YFP with insulin: higher = more YFP-tagged ERK signal
# The screen tested about 23,000 reagents; this is a random part of those with a known target gene and a result. 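Extra replicates exist only for a retested subset of genes; insulin dose and duration not given; both raised and lowered dpERK matter.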 The numbers tell different reagents against one gene apart. A plus sign joins genes that one reagent is predicted to hit. Not stated in the record: the amount of reagent, the time to read-out.
target,dsRNA no.,"replicate 1, z-score of dpERK with insulin","replicate 2, z-score of dpERK with insulin","replicate 1, z-score of dpERK under basal conditions","replicate 1, z-score of ERK-YFP with insulin"
Mid1,1,-0.68,-1.51,0.52,-0.32
Mid1,2,0.58,-0.28,0.89,0.08
Mid1,3,1.04,0.51,0.38,0.28
Mid1,4,0.55,0.73,-0.6,-0.21
Mid1,5,0.5,0.28,-0.69,-0.04
Gr21a (Gustatory receptor 21a),1,2.03,1.76,0.47,-0.32
CG3984,1,0.2,-0.84,-0.37,0.25
pigeon,1,-1.1,-0.74,-0.05,0.72
CG11349,1,0.19,0.67,0.11,0.02
Debcl (Death executioner Bcl-2),1,-0.38,0.19,-0.14,-0.32
kay (kayak),1,-0.67,-0.46,1.09,-0.64
kay (kayak),2,-0.78,-3.31,-2.75,-0.14
kay (kayak),3,5.69,2.74,2.39,0.68
mRpL35 (mitochondrial ribosomal protein L35),1,-0.13,-0.68,-0.46,0.93
l(3)psg2 (lethal (3) persistent salivary gland 2),1,1.69,0.79,1.02,-1.31
CG10887,1,-0.12,-0.49,0.49,-0.12
dmpd (dampened),1,-0.57,0,0.14,0.03
tut (tumorous testis),1,-0.89,-0.03,1.14,-0.1
HINT1 (histidine triad nucleotide binding protein 1),1,-0.69,-1.05,0.31,-0.03
Hr96 (Hormone receptor-like in 96),1,-0.02,-0.36,-0.18,0.15
Psf2 (Partner of Sld Five 2),1,3.51,-1.56,1.16,0.91
Tusp,1,-0.63,-1.49,-0.61,0.5
CG42748,1,-0.39,0.9,0.48,0.68
CG42748,2,1.1,0.29,0,-0.18
CG42748,3,0.29,0.52,0.53,-0.28
Cpsf73 (Cleavage and polyadenylation specificity factor 73),1,0.98,-0.99,1.97,-0.12
CG32638,1,1.15,0.89,0.67,-0.24
CG10681,1,0.72,0.04,0.04,-0.15
CG10681,2,0.77,-1.33,0.37,-1.13
pths (porthos),1,0.08,1.27,-0.65,-1.06
CG12655,1,0.87,0.35,0.08,0.3
SiaT (Sialyltransferase),1,-0.02,1.56,0.36,0.35
CG13526,1,0.32,1.42,0.57,-1.01
CG42816,1,-0.42,0.13,-0.02,0.07
Lsm10,1,0.55,1.05,0.3,0.88
HP1e (Heterochromatin Protein 1e),1,-0.01,0.14,1.16,0.78
CG3699,1,-0.37,-0.18,-0.89,0.52
CG3699,2,0.5,0,0.03,-0.22
CG14641,1,2.32,1.62,-0.96,0.03
MESR6 (Misexpression suppressor of ras 6),1,-0.27,-0.56,-0.86,0.24
CG12948,1,-0.57,-0.41,-0.44,-0.31
CG4409,1,-0.19,-0.03,1.62,-0.17
CG10752,1,0.06,0.04,-0.35,0.51
CG34026,1,0.64,0.03,1.55,0.43
CG7025,1,0.7,-0.04,0.32,-0.13
lin (lines),1,0.88,0.6,0.66,0.77
Rilpl (Rab interacting lysosomal protein like),1,-0.43,0.38,-0.3,-0.27
Rpn8 (Regulatory particle non-ATPase 8),1,-2.55,-4.12,-4.77,-1.21
l(2)k14505 (lethal (2) k14505),1,0.09,0.44,0.21,0.23
qkr54B (quaking related 54B),1,0.58,0.46,-0.64,0.43
LPCAT (Lysophosphatidylcholine acyltransferase),1,0.52,0.28,-0.25,0.85
LPCAT (Lysophosphatidylcholine acyltransferase),2,0.28,0.27,-0.06,0.19
CG5342,1,0.14,0.26,0.35,-0.34
CheB53b (Chemosensory protein B 53b),1,0.38,0.62,0.73,1.08
Pal1 + Pdrg1,1,-0.68,-0.73,-0.45,0.36
CG3038,1,-1.9,0.45,-0.57,0.56
"mAChR-A (muscarinic Acetylcholine Receptor, A-type)",1,-4.39,-3.26,-1.45,1.57

Part of the list above in another layout:
target	dsRNA no.	replicate 1, z-score of dpERK with insulin	replicate 2, z-score of dpERK with insulin	replicate 1, z-score of dpERK under basal conditions	replicate 1, z-score of ERK-YFP with insulin
CG10752	1	0.06	0.04	-0.35	0.51
CG34026	1	0.64	0.03	1.55	0.43
CG7025	1	0.7	-0.04	0.32	-0.13
lin (lines)	1	0.88	0.6	0.66	0.77
Rilpl (Rab interacting lysosomal protein like)	1	-0.43	0.38	-0.3	-0.27
Rpn8 (Regulatory particle non-ATPase 8)	1	-2.55	-4.12	-4.77	-1.21
l(2)k14505 (lethal (2) k14505)	1	0.09	0.44	0.21	0.23
qkr54B (quaking related 54B)	1	0.58	0.46	-0.64	0.43
